Data reported in patent publication US20090042785A1.
Residue numbers refer to the chain shown, from its start. These are yes or no findings as the source states them, for the method shown. Some entries that bind do so weakly or less than the wild type. For part of these data: Sequences can lack the tags named with a protein.

Protein sequences, listed by entry. Tags and fused reporters are not part of them. Lines headed by an entry give the natural chain unless they say otherwise; changes in a name come on top. Chains listed by the source or under a name are the forms on record and can include a tag or linker.
UniProt P16410: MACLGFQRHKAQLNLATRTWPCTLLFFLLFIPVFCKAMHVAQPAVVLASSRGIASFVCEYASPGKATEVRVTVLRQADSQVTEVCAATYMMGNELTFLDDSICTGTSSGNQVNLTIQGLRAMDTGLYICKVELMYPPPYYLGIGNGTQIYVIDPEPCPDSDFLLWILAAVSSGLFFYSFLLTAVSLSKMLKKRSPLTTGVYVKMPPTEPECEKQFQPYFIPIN
cynomolgous CTLA-4 on the surface of transfected CHO cells (cynomolgous monkey (macaca fascicularis)) (G7PL88, form named): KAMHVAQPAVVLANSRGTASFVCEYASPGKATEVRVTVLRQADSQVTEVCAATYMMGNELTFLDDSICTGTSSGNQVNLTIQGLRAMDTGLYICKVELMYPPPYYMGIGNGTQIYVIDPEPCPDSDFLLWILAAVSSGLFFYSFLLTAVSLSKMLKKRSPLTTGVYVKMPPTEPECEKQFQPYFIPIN

How the values were obtained:
[1] = molecular target: human CTLA-4-Fc (Chimerigen) (human) (UniProt P16410); assay: competition FACS: HuCTLA4-Ig 10 ug/ml pre-incubated with the antagonist, then staining of P815 cells transfected with human B7.2; blocked ligand B7.2
[2] = molecular target: human CTLA-4-Fc (Chimerigen) (human) (UniProt P16410); assay: competition FACS: HuCTLA4-Ig 5 ug/ml (as printed on the axis) pre-incubated with the antagonist, then staining of P815 cells transfected with human B7.2; blocked ligand B7.2
[3] = molecular target: human CTLA-4-Fc (Chimerigen) (human) (UniProt P16410); assay: high-throughput ELISA of crude cell extracts on captured hCTLA-4-Fc
[4] = molecular target: human CTLA-4-Fc (Chimerigen) (human) (UniProt P16410); assay: competition FACS: 2.5 nM human CTLA-4 Fc pre-incubated with the antagonist, then staining of Raji cells; blocked ligands B7.1 and B7.2
[5] = molecular target: human CTLA-4-Fc (Chimerigen) (human) (UniProt P16410); assay: high-throughput ELISA of cell extracts
[6] = molecular target: human CTLA-4-Fc (Chimerigen) (human) (UniProt P16410); assay: SPR, compared with F09
[7] = molecular target: cynomolgous CTLA-4 on the surface of transfected CHO cells (cynomolgous monkey (macaca fascicularis)) (UniProt G7PL88); assay: FACS on transfected CHO cells
[8] = molecular target: cynomolgous CTLA-4 on the surface of transfected CHO cells (cynomolgous monkey (macaca fascicularis)) (UniProt G7PL88); assay: FACS histograms of transfected CHO cells
[9] = molecular target: human CTLA-4-Fc (Chimerigen) (human) (UniProt P16410); assay: competition FACS: 2.5 nM human CTLA-4 Fc pre-incubated with the antagonist, then staining of Raji cells; % inhibition of CTLA-4 Fc binding; blocked ligands B7.1 and B7.2
[10] = molecular target: human CTLA-4-Fc (Chimerigen) (human) (UniProt P16410); assay: SPR, compared with J08
[11] = molecular target: human CTLA-4-Fc (Chimerigen) (human) (UniProt P16410); assay: FACS competition: hCTLA-4 Fc binding to Raji cells

B1: hNGAL mutein S94.7-Q13 (designed binder)
chain: QDSTSDLIPAPPLSKVPLQQNFQDNQFHGKWYVVGLAGNRILRDDQHPMNMYATIYELKEDKSYNVTSVIFPHKKCEYTIATFVPGSQPGEFTLGNIKSYGDKTSYLVRVVSTNYNQHATVFFKLAEDNAEFFAITIYGRTKELASELKENFIRFSKSLGLPENHIVFPVPIDQCIDGSAWSHPQF
- binding [1]: binds
- binding [2]: binds

B2: hNGAL mutein S67.2-F03 (designed binder)
chain: B1 chain with T120M, A126V
- binding [3]: binds
- binding [1]: binds

B3: hNGAL mutein S140.4-O10 without T7 tag (designed binder)
chain: QDSTSDLIPAPPLSKVPLQQNFQDNQFHGKWYVVGLAGNRILRDDQHPMNMYATIYELKEDKSYNVTSVISSHKKCEYTIATFVPGSQPGEFTLGNIKSYGDKTSYLVRVVSTDYNQYAVVFFKLAEDNAEFFAITIYGRTKELASELKENFIRFSKSLGLPENHIVFPVPIDQCIDG
- binding [4]: binds

B4: hNGAL mutein S140.4-B16 (designed binder, not shown: small tags and cut ends)
chain: B3 chain with S71F, S72P, G95S, N96D
- binding [5]: binds

B5: hNGAL mutein S140.2-P24 (designed binder, not shown: small tags and cut ends)
chain: B3 chain with N50D, N116S
- binding [5]: binds

B6: hNGAL mutein S140.4-O10 (designed binder)
chain: B3 chain
- binding [6]: binds
- binding [7]: binds
- binding [5]: binds
- binding [8]: binds
- binding [9]: binds

B7: hNGAL mutein S140.1-F09 (designed binder, not shown: small tags and cut ends)
chain: B3 chain with D114N
- binding [10]: binds
- binding [5]: binds

B8: hNGAL mutein S140.3-P07 (designed binder, not shown: small tags and cut ends)
chain: B3 chain with S71F, S72P, N129D
- binding [5]: binds

B9: hNGAL mutein S67.3-C21 (designed binder)
chain: QDSTSDLIPAPPLSKVPLQQNFQDNQFHGKWYVVGLAGNYIWRNDRYPMQMYATIYELKEDKSYNVTSVIFDTKKCEYPIATFVPGSQPGEFTLGNIKSYRMDTSYLVRVVSTNYNQHAMVFFKQVNHNTEHFAITIYGRTKELASELKENFIRFSKSLGLPENHIVFPVPIDQCIDGSAWSHPQF
- binding [3]: binds

B10: S140.4-O10-ABD (fusion with the albumin binding domain of streptococcal protein G) (designed binder)
chain: QDSTSDLIPAPPLSKVPLQQNFQDNQFHGKWYVVGLAGNRILRDDQHPMNMYATIYELKEDKSYNVTSVISSHKKCEYTIATFVPGSQPGEFTLGNIKSYGDKTSYLVRVVSTDYNQYAVVFFKLAEDNAEFFAITIYGRTKELASELKENFIRFSKSLGLPENHIVFPVPIDQCIDGSGGAVDANSLAEAKVLANRELDKYGVSDYYKNLINNAKTVEGVKALIDEILAALPSAWSHPQFEK
- binding [11]: binds
- binding [9]: binds
